The results in this text go back to PubChem BioAssay AID2685 (National Center for Advancing Translational Sciences (NCATS), 2010).

The list shows a part of the results. Further columns of the screen follow, without active or inactive calls. The list favours compounds with an active or inconclusive main result. Potencies come from curve fits of mixed quality, noted in brackets.

The experiment can be described thus: qHTS Assay for Lipid Storage Modulators in Drosophila S3 Cells.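 On cell number change: cells counted by Cell Tracker Red CMTPX staining in the red channel.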 As to conditions: BODIPY lipid droplet fluorescence, 18-24 h; for cell number change: measured here: cell count max response, cells fed with added oleic acid. Summed up: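 Laser-scanning cytometry quantifies lipid droplet accumulation (500–530 nm total intensity; droplet/cell object ratio) in oleic acid-fed (400 uM added) Drosophila S3 cells treated with a concentration series. 20 uM Triacsin C defined 100% inhibition.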
(In general: In qHTS, concentration-response curves come from the screen itself.)

[1] abbreviates: measured here: lipid fluorescence (Fed channel) AC50, cells fed with added oleic acid.
Where [2] appears, read: measured here: cell number channel AC50, cells fed with added oleic acid.

Usually AC50 stands for the midpoint of the concentration-response curve, whichever way the signal moves. Read a low AC50 as activity at low concentration. With `CC1CN(S(=O)(=O)c2cccc(C(F)(F)F)c2)CN1C(=O)N1CCOCC1` (stereo unspecified), the cell number change is 13.2%. Further, under setting [1], the concentration at half-maximal activity (AC50) is 0.206 µM [falling, full curve].
With `CCCOc1ccc(C(=O)Nc2ccc(S(=O)(=O)N3CCN(C)CC3)cc2)cc1`, the cell number change turned out to be 30.8%. Besides, under setting [2], the concentration at half-maximal activity (AC50) was 36.6 µM [rising, single point].
In the case of `CC(C)=CC(=O)NCCc1ccccc1`, the cell number change was -73.3%. In addition, under setting [2], the AC50 is 20.6 µM [falling, partial curve].
For the compound `CCC(C)c1ccc(S(=O)(=O)N2CCN(C(C)C(=O)NC3CCCC3)CC2)cc1` (stereo unspecified), the cell number change is 27.4%. Besides, under setting [1], the half-maximal activity concentration (AC50) was 0.0411 µM [rising, full curve].
As to `CCN(c1cccc(C(F)(F)F)c1)S(=O)(=O)c1ccc2c(c1)CCN2C(C)=O`, the AC50 under setting [2] is 2.06 µM [rising, partial curve].
On to `Cc1cc(C)n(-c2ccc(C(=O)N3CCN(S(=O)(=O)c4ccc(Cl)cc4)CC3)cc2)n1`, for which the cell number change came out at 3.48%. Also, the half-maximal activity concentration (AC50) under setting [1] is 0.92 µM [rising, full curve].
In the case of `O=C(NCCCN1CCOCC1)C(C(=O)NCCCN1CCOCC1)c1ncc(C(F)(F)F)cc1Cl`, the cell number change is -35.6%. Further, the AC50 under setting [2] was 15.8 µM [falling, partial curve]. Further, the AC50 under setting [1] is 15.8 µM [falling, partial curve].
Consider `Cc1cc(C)n(-c2ccc(C(=O)OCC(=O)Nc3ccc([N+](=O)[O-])cc3)cc2)n1`, for which the cell number change is -17.4%. The concentration at half-maximal activity (AC50) under setting [2] was 6.51 µM [falling, single point]. Further, the AC50 under setting [1] was 8.2 µM [rising, partial curve].
Regarding `O=C(NCc1ccco1)c1ccc2c(=O)n(-c3ccccc3)c(=S)[nH]c2c1`, the cell number change was 6.07%. Further, the half-maximal activity concentration (AC50) under setting [1] is 32.6 µM [rising, partial curve].
Regarding `Cc1cccn2c(=O)c3cc(C(=O)N4CCCCC4)sc3nc12`, the cell number change is -8.97%. For the same compound, the concentration at half-maximal activity (AC50) under setting [1] is 25.9 µM [falling, single point].
In the case of `Cc1ccc(-n2ncc3c2CCCC3NC(=O)CCN2CCCC2=O)cc1C` (stereo unspecified), the cell number change is -56.4%. In addition, the AC50 under setting [2] is 32.6 µM [falling, partial curve, poor fit]. In addition, the half-maximal activity concentration (AC50) under setting [1] is 29.1 µM [falling, single point].
Regarding `COC(=O)Cc1ccc(NC(=O)c2ccc(C(C)(C)C)cc2)cc1`, the cell number change was determined as 127%. The AC50 under setting [2] is 4.61 µM [rising, partial curve]. Further, the AC50 under setting [1] is 7.31 µM [rising, partial curve].
As for `CCOC(=O)c1cnc(-n2nc(C)cc2C)nc1N(C)C`, the cell number change is -11.3%.
Consider `COc1ccc(N=C2C(=Nc3ccc(OC)cc3)N(c3ccc(N(C)C)cc3)C(=S)N2c2ccc(OC)cc2)cc1`, for which the cell number change is -89.2%. Moreover, the AC50 under setting [2] was 1.64 µM [falling, full curve]. Also, the AC50 under setting [1] is 23.1 µM [falling, partial curve, poor fit].
`COc1ccc(S(=O)(=O)N2CCN(C)CC2)cc1C`: the cell number change came out at 9.39%. Under setting [1], the concentration at half-maximal activity (AC50) was 2.91 µM [falling, partial curve, poor fit].
`O=C(O)c1ccc(Cl)c(S(=O)(=O)N(Cc2ccccc2)c2ccccc2)c1`: the cell number change is 11.9%.
Turning to `COc1ccc(C2=CC(=O)C[C@H](c3ccc(OC)c(OC)c3)C2)cc1`, the cell number change is -0.129%. Under setting [1], the half-maximal activity concentration (AC50) is 0.164 µM [rising, full curve, poor fit].
In the case of `COc1ccc2[nH]cc(C(=O)CN3CCN(C4CCCCC4)CC3)c2c1`, the cell number change turned out to be 4.72%. Besides, the AC50 under setting [1] was 29.1 µM [rising, single point].
As for `Cc1ccc2c(c1)N(C(=O)CCC(=O)NCc1ccccn1)CC(C)O2` (stereo unspecified), the cell number change was 17%. Moreover, the AC50 under setting [1] is 1.03 µM [rising, partial curve, poor fit].
On to `O=C(CN1CCN(S(=O)(=O)N2CCOCC2)CC1)Nc1ccc(Cl)c(Cl)c1`, for which the cell number change is -7.83%.
In the case of `Cc1ccc(Oc2ccc(C(=O)NC3CCSC3=O)cn2)cc1` (stereo unspecified), the cell number change is -22.3%. The AC50 under setting [1] was 32.6 µM [falling, single point].
Consider `O=Cc1ccc(-c2cccc(C(=O)O)c2)o1`, for which the cell number change was -60.5%. Further, the AC50 under setting [2] was 20.6 µM [falling, partial curve, poor fit]. Also, the half-maximal activity concentration (AC50) under setting [1] was 23.1 µM [falling, single point].
As to `COc1ccc(N2CCN(CC(=O)NCc3ccc(Cl)cc3)CC2)cc1`, the cell number change came out at 10.4%. In addition, under setting [1], the concentration at half-maximal activity (AC50) was 23.1 µM [falling, single point].
Take `CN(Cc1ccccc1)C(=S)Nc1cccnc1`: the cell number change is 2.83%. Also, under setting [1], the concentration at half-maximal activity (AC50) is 0.326 µM [falling, full curve, poor fit].
Take `O=C(c1ccco1)N1CCN(CC(=O)N2CCCc3c2c(=O)oc2ccc(O)cc32)CC1`: the cell number change was -136%. Further, the AC50 under setting [2] is 20.6 µM [falling, single point]. Moreover, the concentration at half-maximal activity (AC50) under setting [1] is 29.1 µM [falling, single point].
In the case of `COc1ccc(-c2csc(NC(=O)c3c(OC)cccc3OC)n2)cc1`, the cell number change is 20.5%. Besides, the AC50 under setting [1] is 29.1 µM [rising, single point].
For the compound `O=C(COC(=O)CNC(=O)c1ccco1)Nc1ccccc1OC(F)F`, the cell number change came out at 21.7%.
With `COc1ccc(-c2cc3c(=O)n(CC(=O)NCc4ccc(F)cc4)ncn3n2)cc1`, the cell number change stood at 10.1%. Moreover, under setting [2], the AC50 was 0.184 µM [rising, full curve, poor fit].
Take `CCc1nnc(NC(=O)CSc2nnc3c4ccccc4n(C)c3n2)s1`: the cell number change was 0.91%. The AC50 under setting [1] is 3.66 µM [rising, full curve, poor fit].
For the compound `CCOC(=O)c1cccc(NC(=O)C2CCN(S(=O)(=O)c3cccs3)CC2)c1`, the cell number change stood at 49.8%.
Take `CC(=O)c1ccc(N2CCN(CC(=O)Nc3ccccc3C(=O)NC3CC3)CC2)c(F)c1`: the cell number change amounted to 14.2%. Besides, the half-maximal activity concentration (AC50) under setting [1] was 0.0651 µM [falling, full curve].
For the compound `CCOCCCN(C(=O)c1snc(C(N)=O)c1N)C(C(=O)NC1CCCC1)c1ccc(O)c(OC)c1` (stereo unspecified), the cell number change is -12.4%. Moreover, under setting [1], the AC50 is 29.1 µM [falling, single point].
As to `O=C(CSc1nc2cc([N+](=O)[O-])ccc2n1-c1ccccc1)NCc1ccc2c(c1)OCO2`, the cell number change is -16.8%.
For the compound `O=C(OCC(=O)N1CCc2ccccc2C1)c1cccnc1Cl`, the cell number change came to 31.6%. Besides, under setting [2], the half-maximal activity concentration (AC50) is 25.9 µM [rising, single point]. Further, the AC50 under setting [1] was 29.1 µM [rising, single point].
Consider `CN(c1cccc(NC(=O)CSc2ccc(Cl)cc2)c1)S(C)(=O)=O`, for which the cell number change is -16.6%. Moreover, the half-maximal activity concentration (AC50) under setting [1] is 6.51 µM [rising, single point].
For `Cc1ccc(C)c2sc(N3CCN(C(=O)c4ccc([N+](=O)[O-])o4)CC3)nc12`, under setting [2], the AC50 was 6.51 µM [rising, single point].
On to `O=C(NCc1ccccc1F)C1CCCN1C(=O)Nc1ccccc1` (stereo unspecified), for which the cell number change is -4.72%. Further, under setting [1], the AC50 is 0.517 µM [rising, single point].
For `CCOC(=O)c1c(NC(C)=O)sc2c(OCC(O)CN(CC)CC)c(Br)ccc12` (stereo unspecified), the cell number change is -8.39%.
`CCCn1cnc2cc(NC(=O)c3cccs3)ccc21`: the cell number change is 24.7%. For the same compound, the half-maximal activity concentration (AC50) under setting [1] is 29.1 µM [rising, single point].
For `CNC(=O)COC(=O)c1ccc(-c2nc3ccccc3s2)s1`, the cell number change is -21.4%. Besides, under setting [1], the half-maximal activity concentration (AC50) was 29.1 µM [falling, single point].
In the case of `NC(=O)C1(c2ccccc2)OC1c1ccccc1` (stereo unspecified), the cell number change came out at 6.07%. In addition, the concentration at half-maximal activity (AC50) under setting [1] was 29.1 µM [falling, partial curve, poor fit].
As to `COc1ccc(NC(=O)COC(=O)c2ccc(S(=O)(=O)N3CCCCCC3)cc2)c(OC)c1`, the cell number change was -0.257%. Further, the AC50 under setting [2] was 7.31 µM [rising, single point]. The AC50 under setting [1] is 5.8 µM [rising, partial curve].
As for `COCCn1c(C)cc(C2=NNC(=Nc3ccc(F)cc3)SC2)c1C`, the cell number change came to 37.7%. Besides, under setting [2], the half-maximal activity concentration (AC50) is 29.1 µM [rising, single point]. In addition, the AC50 under setting [1] was 23.1 µM [rising, single point].
Regarding `CN1C(=O)c2ccccc2N(C)C1c1ccc2c(c1)OCO2` (stereo unspecified), the cell number change was -12.8%. Moreover, the AC50 under setting [1] was 14.6 µM [rising, single point].
Regarding `COc1ccc(Cn2ccnc2)cc1Br`, the half-maximal activity concentration (AC50) under setting [2] is 0.651 µM [rising, single point].
Turning to `O=C(OCCCOC(=O)c1ccc([N+](=O)[O-])o1)c1ccc([N+](=O)[O-])o1`, the cell number change turned out to be 5.68%. Also, the AC50 under setting [1] is 0.58 µM [falling, single point].
Take `O=C(N/N=C/C=C\c1ccco1)c1cccs1`: the cell number change is -32.9%. The half-maximal activity concentration (AC50) under setting [2] was 29.1 µM [falling, single point]. The concentration at half-maximal activity (AC50) under setting [1] is 29.1 µM [falling, single point].
Consider `O=C(NC(CC(=O)N1CCN(c2ccccc2O)CC1)c1ccccc1)c1ccccc1Cl` (stereo unspecified), for which the cell number change is -21.7%. Further, under setting [1], the AC50 was 0.00411 µM [rising, full curve, poor fit].
Consider `CC(=O)c1cccc(NC(=O)CSc2nc(=O)n(Cc3ccccn3)c3c2CCC3)c1`, for which, under setting [2], the concentration at half-maximal activity (AC50) is 0.00411 µM [rising, full curve, poor fit].
`COc1ccc2c(c1)c(C(C)=O)c(C)n2C`: the cell number change came out at 38.9%. The AC50 under setting [2] is 18.4 µM [rising, partial curve]. For the same compound, the AC50 under setting [1] is 3.26 µM [rising, full curve].
`CC1=C(C(=O)OCCOC(C)C)C(c2cccnc2)C2=C(CCCC2=O)N1` (stereo unspecified): the cell number change was 9.68%. Moreover, the concentration at half-maximal activity (AC50) under setting [1] was 0.411 µM [rising, full curve].
Take `COc1ccc(N2CCN(C(=O)Nc3ccccc3C)CC2)cc1`: the cell number change came to 3.97%. The AC50 under setting [1] was 0.1 µM [rising, full curve, poor fit].
As for `COc1ccc(-n2nc(C(=O)Nc3ccc4c(c3)OCO4)c3ccccc3c2=O)cc1`, the cell number change is -9.94%. Besides, the half-maximal activity concentration (AC50) under setting [1] is 0.0259 µM [rising, full curve].
Take `CCn1c(-c2ccc(-c3ccccc3)cc2)c[nH]c1=S`: the cell number change was -26.8%. The AC50 under setting [2] was 0.366 µM [rising, full curve]. In addition, under setting [1], the concentration at half-maximal activity (AC50) is 0.58 µM [rising, full curve].
Regarding `C=CCC(CC=C)(C(=O)O)c1ccccc1`, the cell number change is -0.86%.
Still for that read-out and setting: the figure for `CC(C)(C)NC(=O)N1CCN(S(=O)(=O)c2ccc3c(c2)CCC3)CC1` is -3.63%.
For the compound `CN1CCN(CCCNc2c(C=O)c(=O)[nH]c3ccccc23)CC1`, the cell number change is 35.1%. The AC50 under setting [2] was 0.92 µM [rising, full curve, poor fit]. In addition, the AC50 under setting [1] was 29.1 µM [rising, single point].
With `CS(=O)(=O)N1CCN(CC2CC3C=CC2C3)CC1` (stereo unspecified), the AC50 under setting [1] is 1.64 µM [falling, partial curve].
